Data as given in PubChem BioAssay AID504744 (Drosophila RNAi Screening Center, 2011)
The screen tested about 23,000 reagents; this is a random part of those that have a named target and a result. Over the whole deposit, 98 (0.43%) are marked active. 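Only hit calls are given; the phospho-dAkt signals, z-scores and hit direction were not deposited.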 The numbers tell different reagents against one gene apart. Names joined by + are all predicted targets of the reagent. Reagent sequences are not shown.

Screen: 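Uncover factors, including feedback loops, that control dAkt activation in fly cells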 (primary screen)
System: Drosophila Kc167 cells
Reagents: long dsRNA against Drosophila genes, 250 ng dsRNA per well of a 384-well plate
Timing: 3 days of knock-down, then overnight serum-free starvation before stimulation
Challenge: bovine insulin at 387 nM for 10 minutes after 12 h without serum
Read-out: 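In-cell antibody fluorescence for phospho-dAkt in each well over DNA-dye signal, with log2 residuals expressed as z-scores adjusted for cell count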
Rule for the call: 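Hit in the insulin screen when the two-replicate mean z-score is more extreme than plus or minus 2.5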

target gene,dsRNA no.,outcome
NimB4 (Nimrod B4),1,inactive
GluRIIC (Glutamate receptor IIC),1,inactive
CG2887,1,inactive
CG3918,1,inactive
Mlp84B (Muscle LIM protein at 84B),1,inactive
sloth2 + sloth1,1,inactive
sloth2 + sloth1,2,inactive
Vamp7 (Vesicle-associated membrane protein 7),1,inactive
fs(1)Ya (female sterile (1) Young arrest),1,inactive
CG31462 (retired record),1,inactive
Rev1 (DNA polymerase Rev1),1,inactive
CG34205,1,inactive
CG34205,2,inactive
Cyp6a14 (retired record),1,inactive
PIG-B (Phosphatidylinositol glycan anchor biosynthesis class B),1,inactive
PIG-B (Phosphatidylinositol glycan anchor biosynthesis class B),2,inactive
Or22c (Odorant receptor 22c),1,inactive
CG7744,1,inactive
CG13367,1,inactive
CG13367,2,inactive
Diedel,1,inactive
Cap-G (Chromosome associated protein G),1,inactive
Cap-G (Chromosome associated protein G),2,inactive
Cap-G (Chromosome associated protein G),3,inactive
p-cup (presidents-cup),1,inactive
CG14478,1,inactive
CG32537,1,inactive
CG5984,1,inactive
CG5402,1,inactive
CG17300,1,inactive
CG13605,1,inactive
CG6071,1,inactive
ClpP (Caseinolytic protease proteolytic subunit),1,inactive
mRpS18A (mitochondrial ribosomal protein S18A),1,inactive
fliI (flightless I),1,active
dj (don juan),1,inactive
CG14073,1,inactive
CG4025,1,inactive
fne (found in neurons),1,inactive
fne (found in neurons),2,inactive
NimC2 (Nimrod C2),1,inactive
CG14265,1,inactive
Swt1 (Swt1 RNA endoribonuclease),1,inactive
smg (smaug),1,inactive
Rexo5 (RNA exonuclease 5),1,inactive
Cyt-c1 (Cytochrome c1),1,inactive
CG6865,1,inactive
Taf10b + Taf10,1,inactive
Polr1C (RNA polymerase I and III subunit C),1,active
CG2889,1,inactive
CG6225,1,inactive
AGO1 (Argonaute-1),1,active
Atg10 (Autophagy-related 10),1,inactive
CG14285,1,inactive
Sec10 (Secretory 10),1,inactive
Cbp53E (Calbindin 53E),1,inactive
"Sr-CIII (Scavenger receptor class C, type III)",1,inactive
tey (teyrha-meyrha),1,inactive
tey (teyrha-meyrha),2,inactive
osk (oskar),1,inactive
18w (18 wheeler),1,inactive
CG17211,1,inactive
CG33500,1,inactive
Ndg (Nidogen),1,inactive
